Patent US20180066318A1 (INSTITUT PASTEUR, published 2018)
No constants are given. Whether binding was seen depends on the method and setting. Binding seen in cells or lysates may run through a third protein. Some binding calls cover weakened binding; strength is not graded here. Tags and fused reporters may be left off the sequences shown.

Key:
[1] = molecular target: T1, GST fused to the Vav SH3 domain (GST-SH3v) (UniProt P15498); assay: GST pull-down of in vitro translated HA-ESYT2, anti-HA blot; less than with the CARMA1 SH3 domain
T1 sequence (looked up): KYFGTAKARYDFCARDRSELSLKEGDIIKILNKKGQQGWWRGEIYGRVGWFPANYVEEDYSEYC

[2] = molecular target: T1, GST fused to the Vav SH3 domain (GST-SH3v); assay: GST pull-down of in vitro translated HA-tagged E-Syt2

B1: in vitro translated HA-tagged E-Syt2 (protein, not shown: small tags and cut ends)
chain: MTPPSRAEAGVRRSRVPSEGRWRGAEPPGISASTQPASAGRAARHCGAMSGARGEGPEAGAGGAGGRAAPENPGGVLSVELPGLLAQLARSFALLLPVYALGYLGLSFSWVLLALALLAWCRRSRGLKALRLCRALALLEDEERVVRLGVRACDLPAWVHFPDTERAEWLNKTVKHMWPFICQFIEKLFRETIEPAVRGANTHLSTFSFTKVDVGQQPLRINGVKVYTENVDKRQIILDLQISFVGNCEIDLEIKRYFCRAGVKSIQIHGTMRVILEPLIGDMPLVGALSIFFLRKPLLEINWTGLTNLLDVPGLNGLSDTIILDIISNYLVLPNRITVPLVSEVQIAQLRFPVPKGVLRIHFIEAQDLQGKDTYLKGLVKGKSDPYGIIRVGNQIFQSRVIKENLSPKWNEVYEALVYEHPGQELEIELFDEDPDKDDFLGSLMIDLIEVEKERLLDEWFTLDEVPKGKLHLRLEWLTLMPNASNLDKVLTDIKADKDQANDGLSSALLILYLDSARNLPSGKKISSNPNPVVQMSVGHKAQESKIRYKTNEPVWEENFTFFIHNPKRQDLEVEVRDEQHQCSLGNLKVPLSQLLTSEDMTVSQRFQLSNSGPNSTIKMKIALRVLHLEKRERPPDHQHSAQVKRPSVSKEGRKTSIKSHMSGSPGPGGSNTAPSTPVIGGSDKPGMEEKAQPPEAGPQGLHDLGRSSSSLLASPGHISVKEPTPSIASDISLPIATQELRQRLRQLENGTTLGQSPLGQIQLTIRHSSQRNKLIVVVHACRNLIAFSEDGSDPYVRMYLLPDKRRSGRRKTHVSKKTLNPVFDQSFDFSVSLPEVQRRTLDVAVKNSGGFLSKDKGLLGKVLVALASEELAKGWTQWYDLTEDGTRPQAMT
For B1, the binding [1] was “binds” and the binding [2] was “binds”.
